These are yes or no findings as the source states them, for the method shown. Binding seen in cells or lysates may run through a third protein. Some entries that bind do so weakly or less than the wild type.
Target: GFP-tagged Sin1 (stress-activated protein kinase (SAPK)-interacting protein 1) (UniProt Q9BPZ7)
Test: co-IP; reciprocal: lysates (400 µg) of co-transfected HEK-293T cells; immunoprecipitation with anti-GFP antibody and protein G-sepharose, 4°C; washes with lysis buffer (1% Triton X-100, 150 mM NaCl) and with 500 mM NaCl; blotted for HA-Rit^Q79L and Sin1

By UniProt entry, the sequences of proteins in these tests, tags left out. Where a name states a change or a piece, a line headed by the entry shows the natural chain unless it says otherwise.
UniProt Q9BPZ7: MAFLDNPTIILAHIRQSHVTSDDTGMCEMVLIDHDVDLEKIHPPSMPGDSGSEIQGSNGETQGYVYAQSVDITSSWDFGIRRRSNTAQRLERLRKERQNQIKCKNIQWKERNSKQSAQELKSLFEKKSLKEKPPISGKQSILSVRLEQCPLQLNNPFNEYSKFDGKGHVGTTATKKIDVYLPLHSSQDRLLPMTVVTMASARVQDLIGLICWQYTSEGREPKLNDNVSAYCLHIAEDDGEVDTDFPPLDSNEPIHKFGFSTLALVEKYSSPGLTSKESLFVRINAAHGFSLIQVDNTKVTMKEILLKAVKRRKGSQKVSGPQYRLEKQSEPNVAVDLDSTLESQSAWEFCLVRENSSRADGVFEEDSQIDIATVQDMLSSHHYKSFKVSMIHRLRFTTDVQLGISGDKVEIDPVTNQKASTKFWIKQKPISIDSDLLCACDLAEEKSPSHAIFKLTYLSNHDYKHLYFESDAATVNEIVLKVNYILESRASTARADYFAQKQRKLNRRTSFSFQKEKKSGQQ
UniProt Q92963: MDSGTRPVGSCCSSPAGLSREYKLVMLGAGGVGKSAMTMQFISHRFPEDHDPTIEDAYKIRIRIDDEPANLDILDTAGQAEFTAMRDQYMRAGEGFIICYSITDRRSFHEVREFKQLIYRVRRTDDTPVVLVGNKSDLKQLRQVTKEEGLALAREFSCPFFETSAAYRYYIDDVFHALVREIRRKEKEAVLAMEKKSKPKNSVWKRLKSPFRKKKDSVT

binding: binds
Substance: HA-tagged active Rit (Rit^Q79L) (from UniProt Q92963 1-219)

Source: article PMC4274107
